Reference: PMC5983471 (PLoS ONE, 2018)

System: tumor-associated and AR-V transcripts in circulating tumor cells
Assay: AdnaTest qRT-PCR of circulating tumor cells
Type: in vivo, human
Set-up: key: Tumor-associated transcripts (PCR fragment) are detected by visualization on 2% agarose gel (+/-)
Conditions: Day 29; 1000 mg PO TID + enzalutamide; Pt# 19

O=C(Nc1ccc([N+](=O)[O-])cc1Cl)c1cc(Cl)ccc1O [niclosamide, 2',5-dichloro-4'-nitrosalicylanilide]
PSMA transcript in CTCs: +
